The campaign covered roughly 330,000 compounds. About 7,700 (2.3%) were called active. This list was built around the results that the source calls inconclusive (neither active nor inactive); the mix of calls is not that of the screen. The call rests on the fitted dose curve; in most records, active means well fitted inhibition curve with a large enough effect; inconclusive means small, poorly fitted or top-dose-only effect, or effect the other way; inactive means flat fitted curve, though single readings scatter. Where the call is inconclusive, the potency comes from a doubtful curve fit.
Assay: qHTS screen for small molecules that inhibit ELG1-dependent DNA repair in human embryonic kidney (HEK293T) cells expressing luciferase-tagged ELG1; further: nearly all actives have a fitted effect of over 55% in size
Conditions: HEK293T ELG1-luciferase reporter, luminescence, 16 h, DNA damage induced by 5-fluorouridine; activity change, negative = inhibition: at 46.1 µM (top of the series)
Procedure, shortened: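 HEK293T cells expressing luciferase-tagged ELG1 (2,000/well) received 5-Fluorouridine plus compound or DMSO for 16 hr at 37 °C. Luciferase was read by ONE-Glo luminescence after 30 min at room temperature.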
On the % scale 0 is the no-effect control and ±100 the full control effect; potency means the concentration at half of the fitted maximal effect.

Row | Compound | Potency | activity change, negative = inhibition
1 | N#C/C(=C\Nc1ccc2c(c1)OCCO2)c1nc2ccccc2[nH]1 | inconclusive: 8.2 µM [inhibitor, single point] | 
2 | O=C(CCCc1nc(-c2ccc(Cl)cc2)no1)Nc1cccnc1 | inconclusive: 3.66 µM [inhibitor, single point] | 
3 | O=C(Nc1ccc(Br)cn1)c1ccc([N+](=O)[O-])cc1Cl | inconclusive: 3.66 µM [activator, full curve] | 
4 | Oc1ccccc1-c1nc(NCc2cccnc2)c2ccccc2n1 | inconclusive: 23.1 µM [inhibitor, partial curve] | 
5 | COc1ccccc1Cn1c(=S)[nH]c2cc(C(=O)NC(C)C)ccc2c1=O | inconclusive: 2.59 µM [inhibitor, single point] | 
6 | CN(C)c1cccc(C(=O)NCc2ccccc2)c1 | inconclusive: 29.1 µM [activator, single point] | 
7 | Cc1cccc(NC(=O)Cn2nnc3ccccc32)c1 | inconclusive: 7.3 µM [activator, partial curve] | 
8 | COc1ccc(OCCN2CCN(C(=O)c3ccc(OC)c(OC)c3)CC2)cc1 | inconclusive: 5.17 µM [inhibitor, full curve] | 
9 | CCN(C(=O)CN1C(=O)COc2ccc(S(=O)(=O)N3CCOCC3)cc21)c1ccc(OC)cc1 |  | inactive: 22.2%
10 | COC(=O)c1coc(-c2ccc(C)cc2)c1C(=O)OC | inconclusive: 31.6 µM [activator, single point] | 
11 | O=C(COc1ccccc1C(=O)NCc1ccccc1)Nc1ccccc1 | inconclusive: 29.1 µM [inhibitor, single point] | 
12 | Cc1ccc(C(=O)C2CCN(C(=O)c3ccc(C)cc3)CC2)cc1 | inconclusive: 16.4 µM [inhibitor, partial curve] | 
13 | Cc1cccc(NC(=O)Cc2ccc(F)cc2)c1 | inconclusive: 18.4 µM [activator, partial curve, poor fit] | 
14 | O=C(Nc1ccc([N+](=O)[O-])cc1)c1cncc(Br)c1 | inconclusive: 29.1 µM [inhibitor, single point] | 
15 | CC(C)Oc1cccc(C(=O)C2CCCN(C(=O)c3cc(C4CC4)[nH]n3)C2)c1 (stereo not given) |  | inactive: 6.69%
16 | CCOC(=O)c1[nH]c(C)c(C(=O)NCc2ccc(Cl)cc2)c1C |  | inactive: -20%
17 | C/C(=N\NC(=O)c1ccc([N+](=O)[O-])cc1Cl)c1ccccc1 | inconclusive: 18.3 µM [activator, partial curve] | 
18 | C/C(N)=C(/C#N)C(=O)COC(=O)c1cc(-c2ccc(C)cc2)nc2ccccc12 | inconclusive: 18.4 µM [inhibitor, single point] | 
19 | Cc1ccc(NC(=O)[C@@H]2CCCN2C(=O)[C@@H]2Cc3ccccc3CN2)c(C)c1 | inconclusive: 8.2 µM [activator, partial curve, poor fit] | 
20 | C#Cc1ccc(CN2CCC(C(=O)Nc3ccc(Oc4ccccc4)nc3)CC2)cc1 | inconclusive: 0.92 µM [inhibitor, full curve] | 
21 | COCCNC(=O)/C(C#N)=C/C=C/c1ccccc1[N+](=O)[O-] | inconclusive: 29.1 µM [inhibitor, single point] | 
22 | Cc1ccc(-c2cc(C(=O)N/N=C/C=C/c3ccco3)c3ccccc3n2)cc1C | inconclusive: 5.8 µM [activator, partial curve] | 
23 | COc1ccc(NC(=O)CN(C)C(=O)COc2ccccc2Cc2ccccc2)cc1 | inconclusive: 16.4 µM [inhibitor, partial curve, poor fit] | 
24 | COc1ccc(NC(=O)c2ccc([N+](=O)[O-])o2)cc1 | inconclusive: 32.6 µM [activator, single point] | 

Excerpt: entries 12–16
Row | Compound | Potency | activity change, negative = inhibition
12 | Cc1ccc(C(=O)C2CCN(C(=O)c3ccc(C)cc3)CC2)cc1 | inconclusive: 16.4 µM [inhibitor, partial curve] | 
13 | Cc1cccc(NC(=O)Cc2ccc(F)cc2)c1 | inconclusive: 18.4 µM [activator, partial curve, poor fit] | 
14 | O=C(Nc1ccc([N+](=O)[O-])cc1)c1cncc(Br)c1 | inconclusive: 29.1 µM [inhibitor, single point] | 
15 | CC(C)Oc1cccc(C(=O)C2CCCN(C(=O)c3cc(C4CC4)[nH]n3)C2)c1 (stereo not given) |  | inactive: 6.69%
16 | CCOC(=O)c1[nH]c(C)c(C(=O)NCc2ccc(Cl)cc2)c1C |  | inactive: -20%

Additional structures follow.

Row | Compound | Potency | activity change, negative = inhibition
25 | Cc1ccc(C(=O)c2oc3ccccc3c2NC(=O)c2cc(-c3ccccc3O)n[nH]2)cc1 |  | inactive: -8.61%
26 | COC(=O)CSc1nnc(NC(=O)C2CC(=O)N(c3ccc(F)cc3)C2)s1 (stereo not given) |  | inactive: -21.9%
27 | O=C1OC(c2ccccc2)=C/C1=C/N1CCOCC1 | inconclusive: 20.6 µM [activator, partial curve] | 
28 | Clc1cc(Br)ccc1OCCOCCN1CCCC1 |  | inactive: -1.44%
29 | CC1CCc2nn(CC(=O)NCc3ccco3)cc2C1 (stereo not given) | inconclusive: 20.6 µM [activator, partial curve] | 
30 | Cc1ccc(/C=N\Nc2nc3ccc(Cl)cc3[nH]2)o1 | inconclusive: 4.61 µM [activator, single point] | 
31 | CN(C)S(=O)(=O)c1cc(NC(=O)CSc2ncc(C(F)(F)F)cc2Cl)ccc1Cl | inconclusive: 16.4 µM [inhibitor, single point] | 
32 | N/C(=N\OC(=O)CCCc1ccccc1)c1ccccc1Cl |  | inactive: -3.66%
33 | CCc1cccc(C)c1NC(=O)CSc1nnc(CCCOc2ccc(Cl)cc2Cl)n1C | inconclusive: 16.4 µM [inhibitor, partial curve, poor fit] | 
34 | Cc1ccccc1/C=N\NC(=O)c1csnn1 | inconclusive: 25.9 µM [activator, single point] | 
35 | O=C(NCCCN1CCCCCC1)c1ccc2c(c1)NC(=O)C(N1CCOCC1)S2 (stereo not given) | inconclusive: 13 µM [activator, partial curve, poor fit] | 
36 | COc1ccccc1Cn1c(=S)[nH]c2ccccc2c1=O |  | inactive: -1.16%
37 | COc1ccc(NCc2nnc(SCC(=O)Nc3nc(-c4ccccc4)cs3)n2-c2ccccc2)cc1 |  | inactive: 11.4%
38 | CCN(CC)c1ccc(NC(=O)Cn2c(C(C)NC(=O)c3ccc(C)cc3)nc3ccccc32)cc1 (stereo not given) |  | inactive: 17.1%
39 | COc1ccc(/C=N/OCC(=O)N=Nc2c(O)[nH]c3ccc(Br)cc23)cc1OC | active: 13 µM | 
40 | O=C(CCC(=O)NCc1ccccc1)NCc1ccccc1 |  | inactive: 18.3%
41 | COC(=O)c1ccsc1NC(=O)c1ccc2c(c1)OCCO2 | inconclusive: 5.17 µM [activator, partial curve] | 
42 | COc1ccc(N=Cc2c(O)c3ccccc3oc2=O)cc1 | inconclusive: 14.6 µM [activator, partial curve] | 
43 | Cc1ccc(NC(=O)Cn2c(=O)oc3ccccc32)c(C)c1 |  | inactive: 2.73%
44 | C[C@@H](C(=O)N[C@@H](Cc1c[nH]c2ccccc12)C(=O)O)n1nnc2ccccc2c1=O |  | inactive: -10.1%
45 | CC(=O)NN1C(=O)/C(=C\c2ccc(O)cc2)SC1=S |  | inactive: 2.79%
46 | O=C(COC(=O)c1cn(-c2ccccc2)nc1-c1ccc(F)cc1)Nc1ncc(Cl)cc1Cl | inconclusive: 29.1 µM [activator, single point] | 
47 | CCOC(=O)c1sc(NC(=O)c2ccco2)nc1C | inconclusive: 11.6 µM [activator, partial curve] | 
48 | C=CCN1C(=O)/C(=C/c2ccc(OC)cc2)S/C1=N/c1nccs1 |  | inactive: 13.8%

Row | Compound | Potency | activity change, negative = inhibition
49 | CCOC(=O)C1=C(CSc2nc(-c3ccccc3)ccc2C#N)OC(N)=C(C#N)C1c1ccccc1 (stereo not given) | inconclusive: 18.4 µM [activator, single point] | 
50 | CCOc1ccc(OCC)c(S(=O)(=O)NCc2ccccc2)c1 |  | inactive: -15.4%
51 | COc1cc2c(cc1OC)CN(CC(=O)Nc1ccc3c(c1)OCO3)CC2 | inconclusive: 35.5 µM [inhibitor, single point] | 
52 | Cc1ccc(Cl)c(OC(=O)c2nn(C(C)C)c(=O)c3ccccc23)c1 |  | inactive: -1.56%
53 | Cc1cc(Cl)ccc1OCc1nc(-c2ccc(O)cc2)n[nH]1 |  | inactive: 23%
54 | Cc1ccc(C)c(N2CCN(C(=O)CCCOc3cc(=O)n(C)c4ccccc34)CC2)c1 | inconclusive: 29.1 µM [inhibitor, single point] | 
55 | COc1ccc(CC(=O)n2nc(-c3ccccc3)nc2NCc2ccco2)cc1 | inconclusive: 14.6 µM [activator, partial curve] | 
56 | COC(=O)c1ccc(NC(=O)Nc2ccc(C)cc2)cc1 | inconclusive: 20.6 µM [activator, single point] | 
57 | O=C(NN1CCOCC1)c1ccccc1Br |  | inactive: 8.6%
58 | O=C(NC1CCCCC1)C(c1ccc2ncccc2c1)N(Cc1ccc(F)cc1)C(=O)c1cccs1 (stereo not given) | inconclusive: 25.9 µM [inhibitor, partial curve, poor fit] | 
59 | COc1ccccc1-c1sc2cc3c(cc2c1C#Cc1ccccn1)OCO3 | inconclusive: 23.1 µM [inhibitor, single point] | 
60 | O=C(COc1ccc(Br)cc1)NCCN1CCCC1 | inconclusive: 12.6 µM [activator, single point] | 
61 | O=C(CSc1nc2nc3c(cc2c(=O)n1-c1ccccc1)CCCC3)Nc1cccc2ccccc12 | inconclusive: 11.6 µM [inhibitor, partial curve] | 
62 | CC1CCCCN1CCNC(=O)C1CCCN(S(=O)(=O)c2cccc3nsnc23)C1 (stereo not given) | inconclusive: 16.4 µM [activator, partial curve, poor fit] | 
63 | COc1ccc(C(=O)Nc2ccccc2C(=O)NCc2cccnc2)cc1OC | inconclusive: 7.3 µM [inhibitor, partial curve] | 
64 | C#CCNC(=O)/C=C/c1ccc(OC)cc1 | inconclusive: 20.6 µM [activator, partial curve] | 
65 | COc1cc(/C=N/NC(=O)C(=O)/C=C2\NC3(CCCC3)Cc3ccccc32)ccc1O | active: 23.1 µM | 
66 | COc1cc(CN2CCC(n3nccc3NC(=O)c3ccccc3OC)CC2)ccc1F | inconclusive: 16.4 µM [inhibitor, single point] | 
67 | COc1ccc(/C=N/N(C(C)=O)c2nc(-c3ccc(C)cc3)cs2)cc1 |  | inactive: 2.96%
68 | O=C(Cn1cnc2ccccc2c1=O)NCCC(=O)N1CCN(Cc2ccccc2)CC1 |  | inactive: -1.78%
69 | O=C(COc1ccc(F)cc1)Nc1ccc2c(c1)OCCO2 | inconclusive: 9.2 µM [activator, partial curve] | 
70 | CN1C(=O)/C(=C/c2ccc3c(c2)OCO3)N=C1c1ccccc1 |  | inactive: -5.13%

Reference: PubChem BioAssay AID504467 (National Center for Advancing Translational Sciences (NCATS), 2011)
